# Assay results taken from patent US9440966B2, “Compounds for treatment of metabolic syndrome” (SJT MOLECULAR RESEARCH, S.L., priority 2011, dated 2016).
# Some results were stated once for a whole list of compounds, not compound by compound.
# Test system: Drosophila melanogaster (Oregon-R strain)
# Assay: Toxicology study: larva-to-adult viability and development time
# Settings: Drosophila larvae, compound in food
# Excerpt: The purpose of this study was to test and compare the potential toxic effects of compounds 5a, 6a and 7a on the larva-to-adult viability and development time in a Drosophila melanogaster (Oregon-R) flies. These studies have a relevant predictive role with the aim to anticipate possible adverse toxicological effects that may happen during preclinical studies with animal, preferably mammals. In addition, the data provided are highly quantitative.
# Drosophila melanogaster (Oregon-R) flies were obtained by the University of the Balearic Islands (Spain). […] The larvae were seeded on standard food supplemented with the appropriate dose of compounds tested. Each compound was tested at 1, 10, 100, 1000 and 2000 μg/ml dissolved in standard food. […]
# The number of adult flies which emerged from each vial was counted daily until the exhaustion of the culture. […]
# Viability is expressed as V=NA/NL, where NL is the input number of larvae ([…] in our case) and NA the output number of adults emerging from these NL larvae. Development time was measured in days by the formula DT=ΣNidi/ΣNi where Ni is the number of flies emerging on the day di after the larvae were placed in the medium.
# The data are expressed as the mean±SEM values from 3 independent experiments involving triplicate vials at the number of flies indicated.
row,SMILES,doses the safety profile may reach
1,"COc1ccc(-c2nc(C(=O)NCCCN)cc3c2[nH]c2ccccc23)cc1 [Compound 5a, N(-propylamine)-1-benzosubstituted-β-carboline-3-carboxamide]",up to 2000 μg/mL
2,"COc1ccc(-c2nc(C(=O)N/N=C/c3ccccc3)cc3c2[nH]c2ccccc23)cc1 [Compound 7a, 3-(carbohydrazyl-N′-phenylsubstitute)-1-benzosubstitute-β-carbolinic-3-carbohydrazide]",up to 2000 μg/mL
